# Data reported in patent US20230236206A1, “PREDICTING A SEPSIS CONDITION” (PHARM-ANALYT LABOR GMBH, priority 2020, published 2023).
# Experiment: BM1 level in samples of calves, lama, alpaca, goat, and beef
structure (smiles),measurement,setting,value
"C[C@@H](O)[C@H](NC(=O)Nc1ncnc2c1ncn2[C@@H]1O[C@H](CO)C(O)C1O)C(=O)O (stereo partly drawn) [BM1, N6-Carbamoylthreonyl-D-adenosine]",Concentration levels,"some samples of calves, lama, alpaca, goat, and beef",10 to 30 ng/mL
same,Concentration levels in septic calves,some septic calves,40 to 80 ng/mL
